Hit rate of the full screen: of about 390,000 compounds, about 4,000 (1%) were called active. Inconclusive results, whose numbers are uncertain, are shown with a selection of clear calls. Calls follow the shape of the dose curve; as a rule, active = well fitted inhibition curve with a large enough effect; inconclusive = small, poorly fitted or top-dose-only effect, or another doubt; inactive = no such curve, though single readings can be large or run the other way. Potencies beside an inconclusive call are fits to weak or partial responses and may not hold up.
Molecular target: DNA polymerase iota (Homo sapiens) (UniProt Q9UNA4)
Assay: qHTS for Inhibitors of Polymerase Iota
Details: Pol iota fluorescent replication assay, 10 min; series mostly up to 115 µM
How it was run: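 Fluorescent replication assay read twice, at 0 min and 10 min after adding 50 nM (final) substrate. Enzyme (10 nM) and compounds were first incubated 15 min at room temperature; enzyme-free buffer wells were negative controls.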
Potency is read from the fitted curve at half-maximal effect.

Chains of the proteins cited; added tags and fusions are not shown. Lines headed by an entry give the natural chain unless they say otherwise; changes in a name come on top.
UniProt Q9UNA4: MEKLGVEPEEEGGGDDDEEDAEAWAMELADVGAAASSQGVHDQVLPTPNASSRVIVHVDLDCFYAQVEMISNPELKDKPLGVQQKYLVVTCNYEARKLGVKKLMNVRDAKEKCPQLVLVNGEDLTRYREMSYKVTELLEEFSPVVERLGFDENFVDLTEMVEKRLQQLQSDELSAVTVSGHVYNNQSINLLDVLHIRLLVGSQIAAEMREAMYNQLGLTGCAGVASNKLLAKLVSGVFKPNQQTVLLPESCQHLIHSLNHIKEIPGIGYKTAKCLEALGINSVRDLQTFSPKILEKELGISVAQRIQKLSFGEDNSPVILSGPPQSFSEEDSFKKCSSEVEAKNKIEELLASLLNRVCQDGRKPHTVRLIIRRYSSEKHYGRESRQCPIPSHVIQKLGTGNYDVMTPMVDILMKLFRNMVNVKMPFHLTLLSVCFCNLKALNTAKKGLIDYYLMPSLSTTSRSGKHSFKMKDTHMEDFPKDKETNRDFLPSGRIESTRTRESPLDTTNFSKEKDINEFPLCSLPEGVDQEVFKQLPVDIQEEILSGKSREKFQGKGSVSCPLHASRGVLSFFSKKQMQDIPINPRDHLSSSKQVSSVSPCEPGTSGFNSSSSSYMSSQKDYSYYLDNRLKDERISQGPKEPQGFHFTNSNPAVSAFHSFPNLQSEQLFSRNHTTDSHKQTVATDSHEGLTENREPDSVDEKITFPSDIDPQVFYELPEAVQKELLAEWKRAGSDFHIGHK

SMILES	Potency
CC1CC(C)CN(S(=O)(=O)c2ccc(NC(=O)[C@@H]3CCCN3C(=O)c3cccs3)cc2)C1 (stereo partly drawn)	inactive
CCNC(=O)NC(=O)COC(=O)c1ccccc1SCC(=O)NC(=O)NCC	inconclusive: 35.5 µM [inhibitor, single point]
COC(=O)c1ccc(CSC2=NC[C@@H]3[C@@H]4C(=O)N(C)C(=O)[C@@H]4[C@](Cc4ccccc4)(C(=O)OC)N23)cc1	inconclusive: 25.1 µM [inhibitor, partial curve, poor fit]
Cc1ccc(CS(=O)(=O)c2ncc(Cl)c(C(=O)Nc3nnc(C)s3)n2)cc1	inconclusive: 28.2 µM [inhibitor, single point]
O=C(Oc1ccc[nH]c1=O)c1cccc(Cl)c1	inconclusive: 15.8 µM [inhibitor, full curve, poor fit]
O=[N+]([O-])c1ccc(SCCc2ccccn2)cc1	inconclusive: 2.82 µM [inhibitor, full curve, poor fit]
Cc1ccc(C(=O)Nc2ccccc2C(=O)Nc2ccccn2)cc1Cl	inconclusive: 56.2 µM [inhibitor, partial curve, poor fit]
Cc1cccc(/C(N)=N/OC(=O)c2cccnc2)c1	inactive
CCN(C[C@H]1N[C@@](CC)(C(=O)OC)[C@H]2C(=O)N(C)C(=O)[C@@H]12)C(=O)C1CCCCC1	inconclusive: 17.8 µM [inhibitor, partial curve, poor fit]
O=C(Nc1ccnn1C1CCN(C(=O)c2ccc(F)c(Cl)c2)CC1)C1CC1	inconclusive: 89.1 µM [inhibitor, partial curve, poor fit]
Cc1c(Cc2ccccc2)c(=O)[nH]c(=O)n1C	inactive
CCOC(=O)C1=C(C)N=c2s/c(=C/c3ccccc3)c(=O)n2C1c1ccc(OC)c(OC)c1 (stereo not drawn)	inactive
Nc1cc([N+](=O)[O-])ccc1O	inconclusive: 112 µM [inhibitor, partial curve, poor fit]
CCOc1cccc2c1OC1(C)CC2NC(=O)N1Cc1ccccc1 (stereo not drawn)	inconclusive: 0.631 µM [inhibitor, full curve, poor fit]
CCOC(=O)c1c(NC(=O)CN2CCCCC2)sc2c1CCC(C=O)=C2Cl	inconclusive: 1.58 µM [inhibitor, full curve, poor fit]
CC(C)CNc1ncnc2oc(-c3ccco3)c(-c3ccco3)c12	inconclusive: 39.8 µM [inhibitor, single point]
O=C(O)c1ccccc1/C=N/NC(=O)c1cc(-c2ccco2)nc2ccccc12	inconclusive: 8.91 µM [inhibitor, full curve, poor fit]
Cc1ccc(NC(=O)CSc2nc3nccnc3c(=O)n2CCc2c[nH]c3ccccc23)cc1	inactive
Cc1cc(SCC(=O)c2cccc([N+](=O)[O-])c2)nc(=O)[nH]1	inconclusive: 20 µM [inhibitor, full curve, poor fit]
Nc1ccc2cc3ccccc3cc2c1	inactive
Cc1nn(C)c(Cl)c1CN1CCN(CCC(C)C)C(CCO)C1 (stereo not drawn)	inactive

SMILES	Potency
COc1cc(/C=N/NC(=O)c2ccc(COc3ccccc3Cl)o2)cc(Br)c1O	inconclusive: 50.1 µM [inhibitor, partial curve]
COC(=O)c1ccc(Cn2cc(/C=C\[N+](=O)[O-])c3ccccc32)o1	inconclusive: 44.7 µM [inhibitor, partial curve]
O=C(O)c1ccc(N=c2oc3cc(O)ccc3cc2C(=O)NCc2ccccc2)cc1	inactive
CCCCCCCCCCCCCCCC(C)C1=NCCN1 (stereo not drawn)	inactive
N#C/C(=C/c1cn(-c2ccccc2)nc1-c1cccc(S(=O)(=O)N2CCCC2)c1)C(=O)NCc1ccco1	active: 20 µM
COc1ccccc1CNC(=O)CN1C(=O)CSc2ccc(S(=O)(=O)N(C)C)cc21	inactive
CCOC(=O)c1c(C)[nH]c(CCC(=O)NCCCN2CCN(c3cc(C)ccc3C)CC2)c1C	inconclusive: 89.1 µM [inhibitor, single point]
O=C(Cn1c(=O)oc2cc(S(=O)(=O)N3CCCC3)ccc21)Nc1ccc(C(F)(F)F)cc1	inconclusive: 39.8 µM [inhibitor, single point]
Cc1ccc(S(=O)(=O)N(CC(=O)Nc2ccccc2)C(=O)N2CCN(C)CC2)cc1	inactive
CC(=O)c1c(N2CCN(c3ccccc3)CC2)nc(=S)n(-c2ccccc2)c1C	inconclusive: 35.5 µM [inhibitor, partial curve, poor fit]
COc1ccccc1N=CC1=C(O)CC(c2ccccc2)CC1=O (stereo not drawn)	inconclusive: 89.1 µM [inhibitor, single point]
N#CC1=C(N)OC(c2ccccc2)=C(C#N)C1c1ccc2c(c1)OCO2 (stereo not drawn)	inconclusive: 20 µM [inhibitor, partial curve, poor fit]
CC(=O)OC(COc1ccccc1)Cn1cnc2cc(C)c(C)cc21 (stereo not drawn)	inconclusive: 56.2 µM [inhibitor, partial curve, poor fit]
Cc1onc(-c2c(F)cccc2Cl)c1C(=O)Nc1sc2c(c1C#N)CCC(C(C)(C)C)C2 (stereo not drawn)	inconclusive: 28.2 µM [inhibitor, partial curve, poor fit]
COc1ccc(C=O)cc1COc1c(F)c(F)cc(F)c1F	inactive
CCOC(=O)c1scc(-c2ccc(C)cc2)c1S(=O)(=O)Nc1cc(Cl)ccc1OC	inconclusive: 89.1 µM [inhibitor, partial curve, poor fit]
CC(=O)Nc1ccc(NC(=O)CSc2ccc(-c3ccc(-n4ccnc4)cc3)nn2)cc1	inconclusive: 28.2 µM [inhibitor, single point]
CC(=O)Nc1ccccc1-c1nc2cc(C#N)c(C#N)cc2[nH]c1=O	inactive
O=C(CSc1ncn[nH]1)c1ccc2c(c1)OCO2	inconclusive: 25.1 µM [inhibitor, full curve, poor fit]
CN(CCCN(Cc1ccc(Cl)cc1)c1ccc(Br)cn1)C(=S)NCCCc1cnc[nH]1	inconclusive: 70.8 µM [inhibitor, single point]
CC(C)Cn1nc(NS(=O)(=O)c2cccc3nonc23)c2cc3ccccc3nc21	inconclusive: 25.1 µM [inhibitor, partial curve, poor fit]

SMILES	Potency
C[C@@H]1C=CC(=O)O[C@@H]1c1ccc(Cl)cc1	inconclusive: 31.6 µM [inhibitor, single point]
CC(C)(C)c1nnc2sc(SCC(=O)c3cccs3)nn2c1=O	inconclusive: 12.6 µM [inhibitor, partial curve, poor fit]
Cc1cccc(-c2nc(SCC(=O)Nc3cccc(C(F)(F)F)c3)n3[nH]c(=O)cc3n2)c1	inconclusive: 17.8 µM [inhibitor, full curve, poor fit]
O=C(/C=C\c1ccco1)Nc1nc(-c2ccc3ccccc3c2)cs1	inactive
COc1cc(Nc2c3ccccc3nc3ccccc23)cc(OC)c1OC	inconclusive: 31.6 µM [inhibitor, partial curve, poor fit]
Cn1c(=O)c2c(ncn2CC(=O)OCC(=O)Nc2sccc2C(N)=O)n(C)c1=O	inconclusive: 50.1 µM [inhibitor, partial curve]
COCCCN=C1NN=C(c2cc(C)n(-c3ccccc3F)c2C)CS1	inconclusive: 5.62 µM [inhibitor, full curve, poor fit]
CCN(CCCN(C)C)c1ccc(/C=C/c2ccnc3ccccc23)cc1	inconclusive: 100 µM [inhibitor, single point]
Cc1cccc(/C(N)=N/OC(=O)CCCc2ccccc2)c1	inactive
O=c1[nH]c(Nc2nc3ccccc3o2)nc2c1CCCC2	inactive
Cc1ccn2c(=O)nc(SCC(=O)N3N=C(c4cccs4)CC3c3ccc(F)cc3)nc2c1 (stereo not drawn)	inconclusive: 44.7 µM [inhibitor, partial curve, poor fit]
O=C1C(Nc2ccccc2)=C(N2CCCCC2)C(=O)c2ccccc21	inconclusive: 8.91 µM [inhibitor, partial curve, poor fit]
CC1=CS(=O)(=O)CC1Sc1ncn[nH]1 (stereo not drawn)	inconclusive: 31.6 µM [inhibitor, single point]
CC1(C)OC(C)(C)/C(=C/Nc2ccc(O)cc2)C1=O	inconclusive: 15.8 µM [inhibitor, full curve, poor fit]
CCCCCCc1ccc(OC(=O)c2ccncc2)cc1	inconclusive: 44.7 µM [inhibitor, single point]
CCC(=O)c1cc2c(C)cc(=O)oc2c(C)c1O	inconclusive: 89.1 µM [inhibitor, single point]
C=CC(=O)Nc1sc2c(c1C(N)=O)CCCC2	inconclusive: 25.1 µM [inhibitor, full curve, poor fit]
Cc1ccccc1NC(=O)N1CCCC(c2nc(-c3ccc(C(C)C)cc3)no2)C1 (stereo not drawn)	inconclusive: 112 µM [inhibitor, partial curve, poor fit]
CC(C)CCNC(=O)C1CCCN(S(=O)(=O)c2ccc3c(c2)CC(C)N3C(=O)C2CC2)C1 (stereo not drawn)	inactive
CCC[C@@H](CN1CCC[C@H]1CN1C(N)=NC[C@H]1CC(C)C)N1C[C@@H](Cc2ccccc2)N(CCc2ccc(Cl)c(Cl)c2)C1=N	inconclusive: 0.891 µM [inhibitor, full curve, poor fit]
O=C(CCNS(=O)(=O)c1ccc2c(c1)CCN2C(=O)C1CC1)N1CCN(c2ccc(F)cc2)CC1	inconclusive: 89.1 µM [inhibitor, partial curve, poor fit]

A different layout for 4 compounds above.
SMILES,Potency
O=C(/C=C\c1ccco1)Nc1nc(-c2ccc3ccccc3c2)cs1,inactive
COc1cc(Nc2c3ccccc3nc3ccccc23)cc(OC)c1OC,"inconclusive: 31.6 µM [inhibitor, partial curve, poor fit]"
Cn1c(=O)c2c(ncn2CC(=O)OCC(=O)Nc2sccc2C(N)=O)n(C)c1=O,"inconclusive: 50.1 µM [inhibitor, partial curve]"
COCCCN=C1NN=C(c2cc(C)n(-c3ccccc3F)c2C)CS1,"inconclusive: 5.62 µM [inhibitor, full curve, poor fit]"
